First the molecules themselves.
B1: CDCA8 (protein, UniProt Q53HL2 1-280)
chain: MAPRKGSSRVAKTNSLRRRKLASFLKDFDREVEIRIKQIESDRQNLLKEVDNLYNIEILRLPKALREMNWLDYFALGGNKQALEEAATADLDITEINKLTAEAIQTPLKSAKTRKVIQVDEMIVEEEEEEENERKNLQTARVKRCPPSKKRTQSIQGKGKGKRSSRANTVTPAVGRLEVSMVKPTPGLTPRFDSRVFKTPGLRTPAAGERIYNISGNGSPLADSKEIFLTVPVGGGESLRLLASDLQRHSIAQLDPEALGNIKKLSNRLAQICSSIRTHK
B2: DNTTIP2 (protein, UniProt Q5QJE6 1-756)
chain: MVVTRSARAKASIQAASAESSGQKSFAANGIQAHPESSTGSDARTTAESQTTGKQSLIPRTPKARKRKSRTTGSLPKGTEPSTDGETSEAESNYSVSEHHDTILRVTRRRQILIACSPVSSVRKKPKVTPTKESYTEEIVSEAESHVSGISRIVLPTEKTTGARRSKAKSLTDPSQESHTEAISDAETSSSDISFSGIATRRTRSMQRKLKAQTEKKDSKIVPGNEKQIVGTPVNSEDSDTRQTSHLQARSLSEINKPNFYNNDFDDDFSHRSSENILTVHEQANVESLKETKQNCKDLDEDANGITDEGKEINEKSSQLKNLSELQDTSLQQLVSQRHSTPQNKNAVSVHSNLNSEAVMKSLTQTFATVEVGRWNNNKKSPIKASDLTKFGDCGGSDDEEESTVISVSEDMNSEGNVDFECDTKLYTSAPNTSQGKDNSVLLVLSSDESQQSENSENEEDTLCFVENSGQRESLSGDTGSLSCDNALFVIDTTPGMSADKNFYLEEEDKASEVAIEEEKEEEEDEKSEEDSSDHDENEDEFSDEEDFLNSTKAKLLKLTSSSIDPGLSIKQLGGLYINFNADKLQSNKRTLTQIKEKKKNELLQKAVITPDFEKNHCVPPYSESKYQLQKKRRKERQKTAGDGWFGMKAPEMTNELKNDLKALKMRASMDPKRFYKKNDRDGFPKYFQIGTIVDNPADFYHSRIPKKQRKRTIVEELLADSEFRRYNRRKYSEIMAEKAANAAGKKFRKKKKFRN
B3: CDCA2 (protein, UniProt Q69YH5 1-1023)
chain: MDANSKDKPPETKESAMNNAGNASFILGTGKIVTPQKHAELPPNPCTPDTFKSPLNFSTVTVEQLGITPESFVRNSAGKSSSYLKKCRRRSAVGARGSPETNHLIRFIARQQNIKNARKSPLAQDSPSQGSPALYRNVNTLRERISAFQSAFHSIKENEKMTGCLEFSEAGKESEMTDLTRKEGLSACQQSGFPAVLSSKRRRISYQRDSDENLTDAEGKVIGLQIFNIDTDRACAVETSVDLSEISSKLGSTQSGFLVEESLPLSELTETSNALKVADCVVGKGSSDAVSPDTFTAEVSSDAVPDVRSPATPACRRDLPTPKTFVLRSVLKKPSVKMCLESLQEHCNNLYDDDGTHPSLISNLPNCCKEKEAEDEENFEAPAFLNMRKRKRVTFGEDLSPEVFDESLPANTPLRKGGTPVCKKDFSGLSSLLLEQSPVPEPLPQPDFDDKGENLENIEPLQVSFAVLSSPNKSSISETLSGTDTFSSSNNHEKISSPKVGRITRTSNRRNQLVSVVEESVCNLLNTEVQPCKEKKINRRKSQETKCTKRALPKKSQVLKSCRKKKGKGKKSVQKSLYGERDIASKKPLLSPIPELPEVPEMTPSIPSIRRLGSGYFSSNGKLEEVKTPKNPVKRKDLLRHDPDLHMHQGYDKYDVSEFCSYIKSSSSLGNATSDEDPNTNIMNINENKNIPKAKNKSESENEPKAGTDSPVSCASVTEERVASDSPKPALTLQQGQEFSAGGQNAENLCQFFKISPDLNIKCERKDDFLGAAEGKLQCNRLMPNSQKDCHCLGDVLIENTKESKSQSEDLGRKPMESSSVVSCRDRKDRRRSMCYSDGRSLHLEKNGNHTPSSSVGSSVEISLENSELFKDLSDAIEQTFQRRNSETKVRRSTRLQKDLENEGLVWISLPLPSTSQKAKRRTICTFDSSGFESMSPIKETVSSRQKPQMAPPVSDPENSQGPAAGSSDEPGKRRKSFCISTLANTKATSQFKGYRRRSSLNGKGESSLTALERIEHNGERKQ
B4: CHAMP1 (protein, UniProt Q96JM3 1-812)
chain: MEAFQELRKPSARLECDHCSFRGTDYENVQIHMGTIHPEFCDEMDAGGLGKMIFYQKSAKLFHCHKCFFTSKMYSNVYYHITSKHASPDKWNDKPKNQLNKETDPVKSPPLPEHQKIPCNSAEPKSIPALSMETQKLGSVLSPESPKPTPLTPLEPQKPGSVVSPELQTPLPSPEPSKPASVSSPEPPKSVPVCESQKLAPVPSPEPQKPAPVSPESVKATLSNPKPQKQSHFPETLGPPSASSPESPVLAASPEPWGPSPAASPESRKSARTTSPEPRKPSPSESPEPWKPFPAVSPEPRRPAPAVSPGSWKPGPPGSPRPWKSNPSASSGPWKPAKPAPSVSPGPWKPIPSVSPGPWKPTPSVSSASWKSSSVSPSSWKSPPASPESWKSGPPELRKTAPTLSPEHWKAVPPVSPELRKPGPPLSPEIRSPAGSPELRKPSGSPDLWKLSPDQRKTSPASLDFPESQKSSRGGSPDLWKSSFFIEPQKPVFPETRKPGPSGPSESPKAASDIWKPVLSIDTEPRKPALFPEPAKTAPPASPEARKRALFPEPRKHALFPELPKSALFSESQKAVELGDELQIDAIDDQKCDILVQEELLASPKKLLEDTLFPSSKKLKKDNQESSDAELSSSEYIKTDLDAMDIKGQESSSDQEQVDVESIDFSKENKMDMTSPEQSRNVLQFTEEKEAFISEEEIAKYMKRGKGKYYCKICCCRAMKKGAVLHHLVNKHNVHSPYKCTICGKAFLLESLLKNHVAAHGQSLLKCPRCNFESNFPRGFKKHLTHCQSRHNEEANKKLMEALEPPLEEQQI

Sequences of proteins named here, by UniProt entry; tags and fusion partners are left off. A change or cut given only in a name is not applied to a line headed by its entry.
UniProt P52926: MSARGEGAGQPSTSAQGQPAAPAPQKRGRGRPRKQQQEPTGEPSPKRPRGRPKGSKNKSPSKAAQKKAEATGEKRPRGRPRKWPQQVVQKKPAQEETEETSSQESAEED
UniProt Q14676: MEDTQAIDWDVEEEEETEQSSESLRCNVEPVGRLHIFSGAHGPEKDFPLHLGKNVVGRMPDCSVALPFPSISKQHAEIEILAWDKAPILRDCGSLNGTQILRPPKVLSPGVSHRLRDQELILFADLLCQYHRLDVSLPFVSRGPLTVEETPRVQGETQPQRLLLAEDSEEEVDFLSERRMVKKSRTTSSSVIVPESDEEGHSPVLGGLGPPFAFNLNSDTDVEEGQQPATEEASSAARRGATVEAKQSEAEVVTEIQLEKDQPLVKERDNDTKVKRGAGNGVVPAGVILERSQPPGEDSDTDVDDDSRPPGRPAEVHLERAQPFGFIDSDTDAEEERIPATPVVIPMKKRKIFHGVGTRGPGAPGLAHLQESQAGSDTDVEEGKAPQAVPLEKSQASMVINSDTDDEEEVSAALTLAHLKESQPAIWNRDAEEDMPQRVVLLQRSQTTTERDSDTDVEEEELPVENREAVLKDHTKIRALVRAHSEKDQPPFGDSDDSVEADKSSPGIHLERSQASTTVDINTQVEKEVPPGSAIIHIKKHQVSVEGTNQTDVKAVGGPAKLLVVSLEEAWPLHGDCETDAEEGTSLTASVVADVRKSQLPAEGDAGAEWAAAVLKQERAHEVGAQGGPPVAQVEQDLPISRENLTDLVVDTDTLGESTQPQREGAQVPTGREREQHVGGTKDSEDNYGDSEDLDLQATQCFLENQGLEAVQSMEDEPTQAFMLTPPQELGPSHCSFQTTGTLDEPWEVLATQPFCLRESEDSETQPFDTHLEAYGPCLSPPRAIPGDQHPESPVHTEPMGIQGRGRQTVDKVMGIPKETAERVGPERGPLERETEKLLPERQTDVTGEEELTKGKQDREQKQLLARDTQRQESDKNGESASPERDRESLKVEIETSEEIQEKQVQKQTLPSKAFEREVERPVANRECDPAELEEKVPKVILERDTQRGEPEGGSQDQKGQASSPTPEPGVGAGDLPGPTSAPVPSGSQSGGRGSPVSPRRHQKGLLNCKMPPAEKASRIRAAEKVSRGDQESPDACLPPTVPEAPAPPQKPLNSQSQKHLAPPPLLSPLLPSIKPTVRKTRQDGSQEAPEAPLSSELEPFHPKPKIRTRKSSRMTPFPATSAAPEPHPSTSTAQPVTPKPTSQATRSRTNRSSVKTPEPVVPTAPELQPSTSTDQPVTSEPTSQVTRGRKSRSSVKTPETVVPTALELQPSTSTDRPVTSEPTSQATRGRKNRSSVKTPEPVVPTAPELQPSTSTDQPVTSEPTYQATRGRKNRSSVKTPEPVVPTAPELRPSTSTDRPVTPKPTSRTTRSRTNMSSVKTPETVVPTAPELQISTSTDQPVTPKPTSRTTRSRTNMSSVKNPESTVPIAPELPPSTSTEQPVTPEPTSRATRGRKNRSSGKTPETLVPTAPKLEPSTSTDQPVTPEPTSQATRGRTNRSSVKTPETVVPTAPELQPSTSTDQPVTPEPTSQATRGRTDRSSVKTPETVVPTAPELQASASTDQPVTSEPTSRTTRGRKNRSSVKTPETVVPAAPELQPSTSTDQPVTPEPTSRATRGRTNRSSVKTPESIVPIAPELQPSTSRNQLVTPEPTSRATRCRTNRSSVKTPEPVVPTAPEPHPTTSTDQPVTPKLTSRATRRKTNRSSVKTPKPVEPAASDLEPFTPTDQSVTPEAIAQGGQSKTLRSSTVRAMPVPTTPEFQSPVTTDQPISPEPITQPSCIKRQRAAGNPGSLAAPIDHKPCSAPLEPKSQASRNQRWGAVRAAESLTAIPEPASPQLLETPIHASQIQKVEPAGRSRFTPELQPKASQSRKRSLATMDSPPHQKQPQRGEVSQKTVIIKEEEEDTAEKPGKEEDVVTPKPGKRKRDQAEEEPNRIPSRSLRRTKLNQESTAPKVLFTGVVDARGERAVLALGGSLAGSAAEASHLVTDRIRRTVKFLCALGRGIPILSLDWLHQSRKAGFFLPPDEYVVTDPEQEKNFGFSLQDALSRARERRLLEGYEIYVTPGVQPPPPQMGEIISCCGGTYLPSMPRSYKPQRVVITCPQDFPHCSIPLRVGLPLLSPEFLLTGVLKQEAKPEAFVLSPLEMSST
UniProt P78347: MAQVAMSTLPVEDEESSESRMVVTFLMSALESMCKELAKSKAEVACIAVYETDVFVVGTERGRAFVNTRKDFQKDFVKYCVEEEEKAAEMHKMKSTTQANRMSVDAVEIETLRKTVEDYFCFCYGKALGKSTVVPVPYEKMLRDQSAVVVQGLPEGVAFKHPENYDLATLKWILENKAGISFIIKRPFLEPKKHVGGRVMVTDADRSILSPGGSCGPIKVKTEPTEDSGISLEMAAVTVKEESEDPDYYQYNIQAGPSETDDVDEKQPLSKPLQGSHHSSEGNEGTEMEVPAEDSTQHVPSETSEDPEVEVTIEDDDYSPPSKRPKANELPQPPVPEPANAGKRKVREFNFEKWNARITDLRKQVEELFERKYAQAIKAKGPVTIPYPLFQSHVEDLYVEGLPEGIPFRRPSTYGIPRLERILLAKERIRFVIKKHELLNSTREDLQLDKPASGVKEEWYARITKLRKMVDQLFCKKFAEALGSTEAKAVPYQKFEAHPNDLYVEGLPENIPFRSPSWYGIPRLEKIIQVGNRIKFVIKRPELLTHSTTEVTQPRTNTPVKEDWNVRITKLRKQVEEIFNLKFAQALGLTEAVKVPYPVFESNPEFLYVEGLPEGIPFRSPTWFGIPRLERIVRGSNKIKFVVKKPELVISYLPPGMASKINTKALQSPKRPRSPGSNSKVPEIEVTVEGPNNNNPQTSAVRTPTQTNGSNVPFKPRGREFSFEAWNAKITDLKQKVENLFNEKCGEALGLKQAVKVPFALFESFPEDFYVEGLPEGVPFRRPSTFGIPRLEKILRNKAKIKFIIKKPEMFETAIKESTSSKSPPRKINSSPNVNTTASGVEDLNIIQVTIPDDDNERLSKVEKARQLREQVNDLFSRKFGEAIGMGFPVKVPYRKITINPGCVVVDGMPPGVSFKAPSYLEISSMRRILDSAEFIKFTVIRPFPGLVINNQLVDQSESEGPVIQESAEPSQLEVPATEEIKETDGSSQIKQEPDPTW
UniProt O95785: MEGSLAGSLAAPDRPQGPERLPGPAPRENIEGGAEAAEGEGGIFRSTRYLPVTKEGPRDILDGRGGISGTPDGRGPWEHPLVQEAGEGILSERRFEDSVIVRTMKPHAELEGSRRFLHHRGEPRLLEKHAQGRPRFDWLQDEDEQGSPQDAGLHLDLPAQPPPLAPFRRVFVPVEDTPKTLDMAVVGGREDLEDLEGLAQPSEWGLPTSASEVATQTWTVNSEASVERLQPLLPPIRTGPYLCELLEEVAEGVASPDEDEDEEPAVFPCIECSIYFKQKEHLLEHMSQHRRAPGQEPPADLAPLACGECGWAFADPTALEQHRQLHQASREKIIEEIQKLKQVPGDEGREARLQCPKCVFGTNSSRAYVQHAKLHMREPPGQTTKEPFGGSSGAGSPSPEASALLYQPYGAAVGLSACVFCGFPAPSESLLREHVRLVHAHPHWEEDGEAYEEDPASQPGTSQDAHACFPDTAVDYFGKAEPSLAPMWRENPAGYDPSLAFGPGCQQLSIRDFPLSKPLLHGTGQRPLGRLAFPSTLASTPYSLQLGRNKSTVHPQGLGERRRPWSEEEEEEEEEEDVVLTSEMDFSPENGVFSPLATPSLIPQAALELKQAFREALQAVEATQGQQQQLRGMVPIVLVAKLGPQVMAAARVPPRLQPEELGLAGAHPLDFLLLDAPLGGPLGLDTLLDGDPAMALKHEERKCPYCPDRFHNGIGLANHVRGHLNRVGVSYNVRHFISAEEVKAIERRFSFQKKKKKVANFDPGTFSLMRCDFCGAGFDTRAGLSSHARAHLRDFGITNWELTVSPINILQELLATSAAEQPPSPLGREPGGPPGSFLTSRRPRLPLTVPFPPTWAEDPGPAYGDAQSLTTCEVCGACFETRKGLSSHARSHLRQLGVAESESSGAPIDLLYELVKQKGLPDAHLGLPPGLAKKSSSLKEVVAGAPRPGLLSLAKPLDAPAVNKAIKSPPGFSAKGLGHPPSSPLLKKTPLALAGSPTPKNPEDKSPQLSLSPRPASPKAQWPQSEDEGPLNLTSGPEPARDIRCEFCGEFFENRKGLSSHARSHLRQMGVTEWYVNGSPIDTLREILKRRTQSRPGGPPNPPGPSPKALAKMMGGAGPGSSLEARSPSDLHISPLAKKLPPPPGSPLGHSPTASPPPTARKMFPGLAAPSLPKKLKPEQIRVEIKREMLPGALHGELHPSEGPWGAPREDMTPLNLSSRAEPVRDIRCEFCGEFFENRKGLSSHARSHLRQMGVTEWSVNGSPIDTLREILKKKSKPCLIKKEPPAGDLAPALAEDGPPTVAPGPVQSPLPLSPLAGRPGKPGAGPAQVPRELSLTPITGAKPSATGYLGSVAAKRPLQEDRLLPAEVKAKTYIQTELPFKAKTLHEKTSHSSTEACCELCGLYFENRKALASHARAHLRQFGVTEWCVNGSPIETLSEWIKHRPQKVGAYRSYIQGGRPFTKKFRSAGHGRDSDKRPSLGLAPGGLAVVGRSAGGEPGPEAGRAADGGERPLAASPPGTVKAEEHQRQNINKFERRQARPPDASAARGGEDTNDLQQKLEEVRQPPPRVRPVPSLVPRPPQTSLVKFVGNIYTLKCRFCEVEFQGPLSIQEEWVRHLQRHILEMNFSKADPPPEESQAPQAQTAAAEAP
UniProt P09429: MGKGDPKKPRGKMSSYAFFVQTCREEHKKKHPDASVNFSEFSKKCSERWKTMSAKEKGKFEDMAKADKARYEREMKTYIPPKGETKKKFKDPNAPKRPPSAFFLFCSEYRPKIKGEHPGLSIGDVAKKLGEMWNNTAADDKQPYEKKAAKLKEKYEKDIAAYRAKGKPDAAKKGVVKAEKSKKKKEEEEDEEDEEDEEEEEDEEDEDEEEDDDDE
UniProt P09874: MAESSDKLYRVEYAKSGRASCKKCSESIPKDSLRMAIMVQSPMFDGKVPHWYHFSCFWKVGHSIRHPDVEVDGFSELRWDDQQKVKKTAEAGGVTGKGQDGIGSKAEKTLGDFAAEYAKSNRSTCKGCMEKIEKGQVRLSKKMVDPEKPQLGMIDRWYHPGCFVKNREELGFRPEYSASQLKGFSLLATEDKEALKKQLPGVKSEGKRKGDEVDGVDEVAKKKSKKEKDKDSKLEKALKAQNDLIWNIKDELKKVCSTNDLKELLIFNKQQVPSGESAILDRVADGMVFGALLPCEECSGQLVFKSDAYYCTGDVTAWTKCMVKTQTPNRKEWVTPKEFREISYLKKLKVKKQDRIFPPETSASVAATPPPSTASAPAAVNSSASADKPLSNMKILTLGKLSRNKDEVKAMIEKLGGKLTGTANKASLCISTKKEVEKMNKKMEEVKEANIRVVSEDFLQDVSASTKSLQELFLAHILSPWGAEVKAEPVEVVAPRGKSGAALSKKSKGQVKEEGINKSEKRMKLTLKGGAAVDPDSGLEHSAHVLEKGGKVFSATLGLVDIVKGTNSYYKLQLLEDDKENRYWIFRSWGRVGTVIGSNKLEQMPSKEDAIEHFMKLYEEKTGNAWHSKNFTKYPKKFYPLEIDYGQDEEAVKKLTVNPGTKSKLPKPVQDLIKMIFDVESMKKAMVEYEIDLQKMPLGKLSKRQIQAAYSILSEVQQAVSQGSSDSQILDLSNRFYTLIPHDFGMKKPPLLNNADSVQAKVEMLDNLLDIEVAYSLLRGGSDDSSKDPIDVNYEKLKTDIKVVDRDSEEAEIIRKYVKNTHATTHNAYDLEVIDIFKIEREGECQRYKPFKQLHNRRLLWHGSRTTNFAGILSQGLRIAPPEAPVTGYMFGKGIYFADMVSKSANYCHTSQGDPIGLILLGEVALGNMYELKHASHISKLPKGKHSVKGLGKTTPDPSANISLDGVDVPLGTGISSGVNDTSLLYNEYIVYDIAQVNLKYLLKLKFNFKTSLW
UniProt P42167: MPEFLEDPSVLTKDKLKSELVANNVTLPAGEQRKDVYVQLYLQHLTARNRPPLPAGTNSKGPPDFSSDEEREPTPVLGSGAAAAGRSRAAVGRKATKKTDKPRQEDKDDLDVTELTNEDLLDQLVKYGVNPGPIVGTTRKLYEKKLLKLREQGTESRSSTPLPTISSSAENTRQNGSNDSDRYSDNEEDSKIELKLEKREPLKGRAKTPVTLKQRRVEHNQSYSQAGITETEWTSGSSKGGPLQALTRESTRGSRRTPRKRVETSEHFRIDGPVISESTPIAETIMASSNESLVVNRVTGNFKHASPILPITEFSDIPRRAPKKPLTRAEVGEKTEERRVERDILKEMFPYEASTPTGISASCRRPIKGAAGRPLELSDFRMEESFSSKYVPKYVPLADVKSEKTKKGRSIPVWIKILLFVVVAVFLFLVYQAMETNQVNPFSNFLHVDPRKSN

Results are given in words; binding and its absence hold for the method and conditions named. In cells and extracts the contact can be indirect. A yes stands for co-enrichment or nearness to the bait. Other partners may have been found. A no says only that the protein was not detected with the bait.

The target of the first assay is HMGA2-Flag-BioID2 (UniProt P52926). Kind of assay: proximity labelling; BioID2: HEK293 stably expressing HMGA2-Flag-BioID2, SILAC, 50 uM biotin for 18 h; high-salt RIPA lysis, capture on streptavidin-agarose, LC-MS/MS; two experiments, controls BirA* and parental cells (experiment 1), BioID2 alone (experiment 2).
Take MDC1 (from UniProt Q14676 1-2089): the binding entry is recorded as “binds”.

Regarding GTF2I (from UniProt P78347 1-998), the binding result is given as “binds”.

In the case of TPX2 (from UniProt Q9ULW0 1-747), the binding entry was “binds”.

Consider “Topoisomerase I (TOPO-1) (from UniProt P11387 1-765)”, for which the binding entry is reported as “no binding”.

PSIP1 (from UniProt O75475 1-530): the binding result was “binds”.

With WIZ (from UniProt O95785 1-1651), the binding entry is recorded as “binds”.

As to HMGB1 (from UniProt P09429 1-215), the binding result is on record as “binds”.

For ZNF24 (from UniProt P17028 1-368), the binding entry is recorded as “binds”.

Regarding HIST1H1C (from UniProt P16403 1-213), the binding entry is given as “binds”.

As for CBX3 (from UniProt Q13185 1-183), the binding result was “binds”.

BRD2 (from UniProt P25440 1-801): the binding result is recorded as “binds”.

On to HAT1 (from UniProt O14929 1-419), for which the binding entry was “binds”.

In the case of MKI67 (from UniProt P46013 1-3256), the binding entry is “binds”.

With SSRP1 (from UniProt Q08945 1-709), the binding result is “binds”.

For the molecule PARP1 (from UniProt P09874 1-1014), the binding result is given as “binds”.

As for H2AY (from UniProt O75367 1-369), the binding entry was “binds”.

In the case of LAP2B (from UniProt P42167), the binding result is “binds”.

For the molecule B1, the binding entry is recorded as “binds”.

In the case of B2, the binding entry is recorded as “binds”.

B3: the binding entry is listed as “binds”.

With B4, the binding result is on record as “binds”.

Another assay concerns the target HMGA2-V5-miniTurbo (UniProt P52926). Put plainly: proximity labelling; miniTurbo: HEK293 stably expressing HMGA2-V5-miniTurbo, SILAC, 1 hr labeling time with biotin; streptavidin capture, LC-MS/MS; control miniTurbo alone.
As to MDC1 (from UniProt Q14676 1-2089), the binding result was “binds”.

On to GTF2I (from UniProt P78347 1-998), for which the binding entry is “binds”.

On to TPX2 (from UniProt Q9ULW0 1-747), for which the binding entry is listed as “binds”.

“Topoisomerase I (TOPO-1) (from UniProt P11387 1-765)”: the binding entry is on record as “no binding”.

With PSIP1 (from UniProt O75475 1-530), the binding result was “binds”.

With WIZ (from UniProt O95785 1-1651), the binding entry is “binds”.

HMGB1 (from UniProt P09429 1-215): the binding result is recorded as “binds”.

ZNF24 (from UniProt P17028 1-368): the binding result was “binds”.

On to HIST1H1C (from UniProt P16403 1-213), for which the binding result is “binds”.

CBX3 (from UniProt Q13185 1-183): the binding entry is reported as “binds”.

For BRD2 (from UniProt P25440 1-801), the binding result is recorded as “binds”.

For the molecule HAT1 (from UniProt O14929 1-419), the binding entry was “binds”.

With MKI67 (from UniProt P46013 1-3256), the binding entry is listed as “binds”.

As for SSRP1 (from UniProt Q08945 1-709), the binding result was “binds”.

In the case of PARP1 (from UniProt P09874 1-1014), the binding result is “binds”.

For the molecule H2AY (from UniProt O75367 1-369), the binding entry is recorded as “binds”.

For the molecule LAP2B (from UniProt P42167), the binding entry was “binds”.

Consider B1, for which the binding result is reported as “binds”.

Regarding B2, the binding result is “binds”.

Consider B3, for which the binding entry was “binds”.

As to B4, the binding result is recorded as “binds”.

(Values after PMC9966875.)
